Source: US8680014B2, “Methods for improving fruit production and fruit quality” (Washington State University Research Foundation, priority 2010, dated 2014)
At least one structure is not confirmed: it was looked up by name or label, or the drawing left a doubt.

System: sweet cherry cv ‘Bing’ on ‘Gisela® 1’ rootstock
Assay: Experiment 1: limb trial of PCa and GAs alone or in combination, applied 30 days after anthesis
Type: in vivo, sweet cherry (Prunus avium)
Description: A limb trial was conducted to evaluate effects of bioactive gibberellins (GA), prohexadione-calcium (PCa), or combinations applied before harvest on fruit quality of sweet cherry. The most efficacious treatments were utilized in a larger scale trial to investigate their effects on the whole tree scale and postharvest characteristics of fruit. Twelve-year-old sweet cherry cv ‘Bing’ on ‘Gisela® 1’ rootstock was selected for both experiments and trained to a central leader architecture. Both trials were carried out at Washington State University Roza farm, Prosser, Wash., USA (N 46.2°, W 119.7°).
Three limbs with uniform vigor were selected from each of 10 trees. […]
Twenty fruit per treatment were randomly selected and flagged for monitoring fruit growth by measuring fruit equatorial diameter and height weekly after treatment. All current-season shoots on treated limbs were measured weekly to investigate treatment effects on shoot growth. Harvest timing was determined as the day when the majority of fruit had achieved commercial maturity, based on exocarp color. […] Floral bud density on the treated limbs was assessed by counting all spurs and the number of reproductive buds per spur.
All fruit from each limb in Experiment 1 and sub-samples from Experiment 2 were weighed individually and fruit size distribution was calculated according to fruit weight. […]

SMILES: C=C1C[C@]23C[C@@]1(O)CC[C@H]2[C@@]12CC[C@H](O)[C@@](C)(C(=O)O1)[C@H]2[C@@H]3C(=O)O [GA1, gibberellin A1]
- fruit size distribution range (FIG. 6, treated at 30 days after anthesis, 50-300 fruit/limb): 6 g to >10 g
- fruit color distribution range (FIG. 7, Ctifl scale green to Ctifl 7, applied at 30 days after anthesis): Ctifl 2 to Ctifl 5
